According to patent US20250388687A1:
These are yes or no findings as the source states them, for the method shown. Some results given as binding are weak or reduced against the parent protein; the word gives no strength.

Protein sequences, listed by entry. Tags and fused reporters are not part of them. Residues count along the entry.
UniProt P32927, residues 17-443: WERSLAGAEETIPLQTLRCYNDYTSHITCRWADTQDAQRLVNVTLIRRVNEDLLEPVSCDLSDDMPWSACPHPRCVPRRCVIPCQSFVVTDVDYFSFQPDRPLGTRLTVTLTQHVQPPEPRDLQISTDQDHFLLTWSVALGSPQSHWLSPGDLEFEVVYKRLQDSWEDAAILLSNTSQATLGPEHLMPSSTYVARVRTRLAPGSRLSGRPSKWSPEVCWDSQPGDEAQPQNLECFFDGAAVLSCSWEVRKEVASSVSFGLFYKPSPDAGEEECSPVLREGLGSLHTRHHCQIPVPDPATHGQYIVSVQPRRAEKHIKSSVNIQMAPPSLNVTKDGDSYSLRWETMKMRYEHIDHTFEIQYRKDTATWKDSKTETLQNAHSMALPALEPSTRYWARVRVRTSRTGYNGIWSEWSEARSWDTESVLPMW

target: hCD131-Fc (IME021) (human) (UniProt P32927); assay: B cells sorted with labelled hEPOR-Fc and hCD131-Fc, then sequenced

| Binder | binding |
| --- | --- |
| EPOR/CD131 binder, HC SEQ ID NO 1686 / LC SEQ ID NO 1822 (antibody, V domains shown) VH: QVQLQESGPGLVKPSETLSLTCTVSGGSISDYYWNWIRQPPGKGLEWIGYISSRGRTNYNPSLKSRVTLSVDSSKNQFSLKLTSVTAADTAVFYCARGRHFDWLLSYFDYWGQGTLVTVSS VL: SSELTQDPAVSVALGQTVRITCQGDSLRSYYASWYQQKPGQAPVLVIYGKNNRPSGIPDRFSGSSSGNTASLTITGAQAEDEADYYCNSRDSSGNHYVFGTGTKVTVL | binds |
| EPOR/CD131 binder, HC SEQ ID NO 1687 / LC SEQ ID NO 1823 (antibody, V domains shown) VH: EVQLVESGGGLVKPGGSLRLSCAASGFTFSSDNMNWVRQAPGKGLEWVSSIGSSSSYIYYADSVKGRFTISRDNAKNSLYLQMNSLRAEDTAVYYCARDRAIVGATWFDPWGQGTLVIVSS VL: SSELTQDPAVSVALGQTVRITCQGDSLRNYYASWYQQKPGQAPILVIYGKNNRPSGIPDRFSGSSSGNTASLTITGAQAEDEADYYCNSRDSSYNHWVFGGGTKLTVL | binds |
| EPOR/CD131 binder, HC SEQ ID NO 1688 / LC SEQ ID NO 1824 (antibody, V domains shown) VH: EVQLVESGGGLVKPGGSLRLSCAASGFTFSSYSMNWVRQAPGKGLEWVSSISSSSSYIYYADSVKGRFTISRDNAKNSLYLQMNSLRAEDTAVYYCARDRYNWNYRYFDLWGRGTLVTVSS VL: SSELTQDPAVSVALGQTVRITCQGDSLRSYYASWYQQKPGQAPVLVIYGKNNRPSGIPDRFSGSSSGNTASLTITGAQAEDEADYYCNSRDSSGNHLVFGGGTKLTVL | binds |
| EPOR/CD131 binder, HC SEQ ID NO 1690 / LC SEQ ID NO 1826 (antibody, V domains shown) VH: QVQLVQSGAEVKKPGASVKVSCKASGYTFTSYGISWVRQAPGQGLEWMGWISAYNGNTNYAQKLQGRVTMTTDTSTSTAYMELRSLRSDDTAVYYCARDGAARPPRYMDVWGKGTTVTVSS VL: SSELTQDPAVSVALGQTVRITCQGDSLRSYYASWYQQKPGQAPVLVIYGKNNRPSGIPDRFSGSSSGNTASLTITGAQAEDEADYYCNSRDSSGNHLVFGGGTKLTVL | binds |
| EPOR/CD131 binder, HC SEQ ID NO 1692 / LC SEQ ID NO 1828 (antibody, V domains shown) VH: QVQLVQSGSEVKKPGASVKVSCKASGYTFTGYYMYWVRQAPGQGLEWMGWINPNSGGTNYAQKFQDRVTMTRDTSISTAYMELSRLRSDDTAIYYCARDLDYYGSGNYDYWGQGTLVTVSS VL: SSELTQDPAVSVALGQTVRITCQGDSLRSYYASWYQQKPGQAPVLVIYGKNNRPSGIPDRFSGSSSGNTASLTITGAQAEDEADYYCNSRDSSDNHRVFGGGTKLTVL | binds |
| EPOR/CD131 binder, HC SEQ ID NO 1693 / LC SEQ ID NO 1829 (antibody, V domains shown) VH: EVQLVESGGGLVQPGGSLRLSCAASGFTFSSYWMHWVRQAPGKGLVWVSRVNSDGSNTTYADSVKGRFTISRDNAKNTLYLQMNSLRAEDTAVYYCARNRDYHGSGSFDYWGQGTLVTVSS VL: SSELTQDPAVSVALGQTVRITCQGDSLRSYYASWYQQKPGQAPVLVIYGQNNRPSGIPDRFSGSSSGNTASLTITGAQAEDEADYYCNSRDSSGNHWVFGGGTKLTVL | binds |
| EPOR/CD131 binder, HC SEQ ID NO 1694 / LC SEQ ID NO 1830 (antibody, V domains shown) VH: QVQLQQSGPGLVKPSQTLSLTCAISGDNVSSNSAAWNWIRQSPSRGLEWLGRTYYRSKWYNDYAVSVKSRITINPDTSKNQFSLHLNSVTPEDTALYYCARDWNFAFDIWGQGTMVTVSS VL: SSELTQDPAVSVALGQTVRITCQGDSLRSYYASWYQQKPGQAPVLVIYGKNNRPSGIPDRFSGSSSGNTASLTITGAQAEDEADYYCNSRDSSGNHLVFGGGTKLTVL | binds |
| EPOR/CD131 binder, HC SEQ ID NO 1695 / LC SEQ ID NO 1831 (antibody, V domains shown) VH: QVQLVQSGAEVKKPGASVKVSCKASGYTFTSYGITWVRQAPGQGLEWMGWISAYNGNTHYAQKLQGRVTMTTDTSTSTAYMDLRSLRSDDTAVYYCARTIFGVVNNWFDPWGQGTLVTVSS VL: QSVLSQPPSVSEAPRQRVTISCSGSSSNIGYNAVNWYQQLPGKAPKLLISHDDLLPSGVSDRFSGSKSGTSASLAISGLQSDDEADYYCAAWDARLNGWVFGGGTKLTVL | binds |
| EPOR/CD131 binder, HC SEQ ID NO 1697 / LC SEQ ID NO 1833 (antibody, V domains shown) VH: EVQLVESGGGLVKPGGSLRLSCAASGFTFSRYSMNWVRQAPGKGLEWVSSIISSTSYIYYADSVKGRFTISRDNAKNSLYLQMNSLRAEDTAVYYCARETPVTLFDAFDIWGQGTMVTVSS VL: QSVLTQPPSVSGAPGQRVTISCTGSSSNIGARYDVHWYQLLPGSAPKLLIYDNSDRPSGVPDRFSGSRSGTSASLAITGLQAEDEADYFCQSYDSSLSGSVFGGGTKLTVL | binds |
| EPOR/CD131 binder, HC SEQ ID NO 1698 / LC SEQ ID NO 1834 (antibody, V domains shown) VH: EVHLVESGGGLVQPGRSLRLSCAASGFTFDEYAMHWVRQVPGKGLEWVSGISWNSGSIGYADSVKGRFTISRDNAKNSLYLQMNSLRAEDTALYYCAKDIFTGRAGYFDYWGQGTLVTVSS VL: QSVLTQPPSVSGAPGQRVTISCTGSSSNIGAGYDVHWYQQLPGTAPKLLIYGNSNRPSGVPDRFSGSKSGTSASLAITGLQAEDEADYYCQSYDSSLSGWVFGGGTKLTVL | binds |
| EPOR/CD131 binder, HC SEQ ID NO 1700 / LC SEQ ID NO 1836 (antibody, V domains shown) VH: QITLKESGPTLVKPTQTLTLTCTFSGFSISTSGVGVGWIRQPPGKALEWLAFIFWNDDKRYSPSLKSRLTITKDTSKNQVVLTMTNMDPVDTATYYCTHTEYGSSWSVDYWGQGTLVTVSS VL: QAVLTQPASLSASPGASASLTCTLRSGINVGTSRIYWYQQKPGSPPQYLLRYKSDSDKHQDSGVPSRFSGSKDASANAGILLISGLQSEDEADYYCMIWHSSAVVFGGGTKLTVL | binds |
| EPOR/CD131 binder, HC SEQ ID NO 1701 / LC SEQ ID NO 1837 (antibody, V domains shown) VH: EVQLVESGGGVVRPGGSLRLSCAASGFTFDDYGMSWVRQAPGKGLEWVSGINWNGGSTGYADSVKGRFTISRDNAKNSLYLQMNSLRAEDTALYYCARHFDWLLSNAFDIWGQGTMVTVSS VL: QAVLTQPASLSASPGASASLTCTLRSGINVGTYRIYWYQQKPGSPPQYLLRYKSDSDKQQGSGVPSRFSGSKDASANAGILLISGLQSEDEADYYCMIWHSSASVVFGGGTKLTVL | binds |
| EPOR/CD131 binder, HC SEQ ID NO 1702 / LC SEQ ID NO 1838 (antibody, V domains shown) VH: QVQLVQSGAEVKKPGASVKVSCKASGYTFTSYDINWVRQATGQGLEWMGWMNPNSGNTGYAQKFQGRVTMTRNTSISTAYMELSSLRSEDTAVYYCVRRITVVRGVISLDYWGQGTLVTVSS VL: SYELTQPPSVSVSPGQTAIITCSGAKLGDKYACWYQKKPGQSPVMVIYQDRKRPSGIPERFSGSNSGNTATLTISGTQAMDEADYYCQAWDSSTAVFGGGTKLTVL | binds |
| EPOR/CD131 binder, HC SEQ ID NO 1704 / LC SEQ ID NO 1840 (antibody, V domains shown) VH: EVQLVESGGGLVQPGGSLRLSCAASGFTFSSYWMSWVRQAPGKGLEWVANIKQDGSEKYYVDSVKGRFTISRDNAKNSLYLQMNSLRAEDTAVYYCARDDTIFGVVTDAFDIWGQGTMVTVSS VL: SSELTQDPAVSVALGQTVRITCQGDSLRSYYASWYQQKPGQAPVLVIYGKNNRPSGIPDRFSGSSSGNTASLTITGAQAEDEADYYCNSRDSSGNLFGGGTKLTVL | binds |
| EPOR/CD131 binder, HC SEQ ID NO 1706 / LC SEQ ID NO 1842 (antibody, V domains shown) VH: EVQLVESGGGLVKPGGSLRLSCAASGFTFSTYSMNWVRQAPGKGLEWVSSISSSSTYIYYADSVKGRFTISRDNAKNSLYLQMNSLRADDTAVYYCARDPPLSGSYAGEFDYWGQGTLVTVSS VL: SSELTQDPAVSVALGQTVRITCQGDSLRSYYASWYQQKPGQAPVLVIYGKNNRPSGIPDRFSGSSSGNTASLTITGAQAEDEADYYCNSRDSSGNHWVFGGGTKLTVL | binds |
| EPOR/CD131 binder, HC SEQ ID NO 1710 / LC SEQ ID NO 1846 (antibody, V domains shown) VH: EVQLVESGGGLVQPGGSLRLSCAASGFTFSSYSMNWVRQAPGKGLEWVSYISSSSSTIYYADSVKGRFTISRDNAKNSLYLQMNSLRDEDTAVYYCARTYYYGSGSYYTLDYWGQGTLVTVSS VL: QSVLTQPPSVSGAPGQRVTISCTGSSSNIGAGYDVHWYQQLPGTAPKLLIYGNSNRPSGVPDRFSGSKSGTSASLAITGLQAEDEADYYCQSYDSSLSGVVFGGGTKLTVL | binds |
| EPOR/CD131 binder, HC SEQ ID NO 1711 / LC SEQ ID NO 1847 (antibody, V domains shown) VH: QVQLVQSGAEVKKPGASVKVSCKASGYTFTSYDINWVRQATGQGLEWMGWMNPNSGNTGYAQKFQGRVTMTRNTSISTAYMELSSLRSEDTAVYYCARGGITIFGVVTPFDYWGQGTLVTVSS VL: QAVLTQPASLSASPGASASLTCTLRSGINVGTYRIYWYQQKPGSPPQYLLRYKSDSDKQQGSGVPSRFSGSKDASANAGILLISGLQSEDEADYYCMIWHSSAWVFGGGTKLTVL | binds |
| EPOR/CD131 binder, HC SEQ ID NO 1713 / LC SEQ ID NO 1849 (antibody, V domains shown) VH: EVQLVESGGGLVQPGGSLRLSCAASGFTFSSYWMSWVRQAPGKGLEWVANIKQDGSEKYYVDSVKGRFTISRDNAKNSLYLQMNSLRAEDTAVYYCAREGVLWFGEFYYYMDVWGKGTTVTVSS VL: SSELTQDPAVSVALGQTVRITCQGDSLRRYYASWYQQKPGQAPVLVIYGKNNRPSGIPDRFSGSSSGNTASLTITGAQAEDEADYYCNSRDSSGNHLVFGGGTKLTVL | binds |
| EPOR/CD131 binder, HC SEQ ID NO 1716 / LC SEQ ID NO 1852 (antibody, V domains shown) VH: QVHLVESGGGVVQPGRSLRLSCAASGFTFSSYGMHWVRQAPGKGLEWVAIIWYDGSNEYYADSVKGRFTISRDNSKNTLYLQMNTLRAEDTAVYYCAGAYYYDSSGYLNYMDVWGKGTTVTVSS VL: SYVLIQPPSVSVAPGKTARITCGGNNIGGKSVHWYQLKPGQAPVLVICYNRDRPSGIPERFSGSNSGNTATLTISRVEAGDEADYYCQVWDSSSDHPVFGGGTKLTVL | binds |
| EPOR/CD131 binder, HC SEQ ID NO 1717 / LC SEQ ID NO 1853 (antibody, V domains shown) VH: EVQLVESGGGLVKPGGSLRLSCAASGFTFRNAWMSWVRQAPGKGLEWVGRIKTKTDGGATQYAAPVKGRFTISRDDSKNTLYLQMNSLKTEDTAVYYCTTDHIEYSSLYYFDYWGQGTLVTVSS VL: QSVLTQSPSASGTPGQRVTISCSGSNSNIGFNTVNWYQQLPGTAPKLLIDSNNQRPSGVPDRFSGSTSGTSASLAISGLQSEDEADYYCSSYAGSNNFVFGTGTKVTVL | binds |
| EPOR/CD131 binder, HC SEQ ID NO 1718 / LC SEQ ID NO 1854 (antibody, V domains shown) VH: QVQLVQSGAEVKKPGASVKVSCKASGYTFTSYGISWVRQAPGQGLEWMGWISAYNGNTNYAQKLQGRVTMTTDTSTSTAYMELRSLRSDDTAVYYCARQLAYCGGDCYLYFDYWGQGTLVTVSS VL: QSALTQPPSASGSPGQSVTISCTGTSSDVGGYNYVSWYQQHPGKAPKLMIYEVSKRPSGVPDRFSGSKSGNTASLTVSGLQAEDEADYYCSSYAGSNNLVFGGGTKLTVL | binds |
